Measured values taken from publication PMC12040169 (PLOS Biology, 2025).
Some of the results follow.

tested on: T1, CTL2-GFP (C. trachomatis L2/434/Bu, GFP-expressing); set-up: species or system HeLa; Intracellular C. trachomatis growth in HeLa cells, bulk GFP fluorescence relative to DMSO; conditions: bulk GFP, single well; 28.5 h, 10 µM; inhibitor
T1 construct: L2/434/Bu, GFP-expressing

| SMILES | % of control remaining [%] |
| --- | --- |
| O=S(=O)(Nc1ccccn1)c1cccs1 [CBK043773] | 104.044 |
| Cc1cccc(CN2CCC(N(C)Cc3nnc(C4CC4)n3C)C2)c1 (centres unmarked) [CBK305165] | 131.886 |
| O=C(CC1C(=O)NCCN1C(=O)Nc1ccc(OCc2ccccc2)cc1)Nc1ccc(F)cc1 (centres unmarked) [CBK086203] | 66.1066 |
| Fc1ccc(-c2cncc(NCCc3cccnc3)n2)cc1Cl [CBK065745] | 127.049 |
| CC(C)C(=O)N(C)c1nnc(-c2cccnc2)s1 [CBK007554] | 138.307 |
| Cc1nc(C2CCN(C(=O)c3cccnc3)CC2)c2sccn12 [CBK282233] | 95.4754 |
| CN(C)c1nc2c(c(-c3cncc(N)c3)n1)CCCC2 [CBK307503] | 131.715 |
| CC(C)(C)c1ccc(S(=O)(=O)N2CCN(CCC(=O)O)CC2)cc1 [CBK297089] | 138.21 |
| COc1ccc(-c2cc3nnc(C)nc3s2)cc1 [CBK025638] | 113.665 |
| Cc1cc(N)n(CC(=O)NCCCn2ccnc2C(C)C)n1 [CBK306632] | 78.4051 |
| O=C(Nc1ccc(F)cc1)c1ccsc1NS(=O)(=O)Cc1ccccc1[N+](=O)[O-] [CBK042313] | 116.298 |
| O=c1oc2cc(Oc3ccc([N+](=O)[O-])cc3C(F)(F)F)c(Cl)cc2c2c1CCCC2 [CBK264914] | 100 |
| Cc1ccc(C2C(C(=O)c3cccs3)=C(O)C(=O)N2CCN2CCOCC2)o1 (centres unmarked) [CBK264559] | 100 |
| CCn1c2ccccc2c2ccc(/C=N/NC(=O)c3ccc(O)cc3O)cc21 [CBK262948] | 93.432 |
| CC12CCC(=O)N1C(C(=O)NCCNc1ccc(S(C)(=O)=O)cc1[N+](=O)[O-])CS2 (centres unmarked) [CBK296661] | 111.517 |
| CC(C)(C)c1cc(C[C@H]2CNCC[C@H]2CC(=O)N2CCN(c3ccccn3)CC2)no1 [CBK288799] | 136.65 |
| O=C1c2ccccc2NC(c2ccc(O)cc2)N1/N=C/c1ccc(O)cc1 (centres unmarked) [CBK262985] | 109.57 |
| Cc1cccc(NC(=O)NC(=O)C2CCN(CCOc3ccccc3)CC2)c1 [CBK034868] | 104.793 |
| CCCN1C[C@H](NC(=O)C2CC2)[C@@H](c2ccc(OC)cc2)C1 [CBK282518] | 116.172 |
| c1csc(CN2CCC[C@H]2c2nc(-c3ccc(-n4ccnc4)nc3)no2)c1 [CBK288895] | 96.1986 |
| O=C1c2ccccc2CN1c1ccc(Cl)cc1Cl [CBK109908] | 71.9072 |
| O=C(N[C@@H]1CCOC[C@H]1Oc1ccc(CO)cc1)c1ccc(F)cc1 [CBK306571] | 114.02 |
| CN(C)CCCN1C(=O)C(O)=C(C(=O)c2ccccc2)C1c1ccccn1 (centres unmarked) [CBK287778] | 90.2792 |
| COc1cc([N+](=O)[O-])cc2cc(C(=O)NNC(=O)c3ccccc3Cl)c(=O)oc12 [CBK267011] | 144.184 |
| O=c1[nH]c2ccccc2n1C1CCN(S(=O)(=O)c2cccs2)CC1 [CBK149689] | 90.7219 |

Arranged by count of non-hydrogen atoms (smallest number first): 3 of the compounds above

| SMILES | % of control remaining [%] |
| --- | --- |
| COc1ccc(-c2cc3nnc(C)nc3s2)cc1 [CBK025638] | 113.665 |
| c1csc(CN2CCC[C@H]2c2nc(-c3ccc(-n4ccnc4)nc3)no2)c1 [CBK288895] | 96.1986 |
| O=c1oc2cc(Oc3ccc([N+](=O)[O-])cc3C(F)(F)F)c(Cl)cc2c2c1CCCC2 [CBK264914] | 100 |

The list goes on.

| SMILES | % of control remaining [%] |
| --- | --- |
| O=C(C1CCC1)N1CCC(c2nc(Cc3cccs3)no2)C1 (centres unmarked) [CBK283028] | 136.454 |
| O=C(O)c1cc2c(s1)CN(C1CCCCC1)C2 [CBK286885] | 118.236 |
| O=C(c1cc(F)c(F)cc1F)N1CCC2(CCN(C(=O)C3COc4ccccc4O3)C2)C1 (centres unmarked) [CBK131390] | 112.192 |
| CO[C@@H]1CO[C@H]2[C@@H]1OC[C@@H]2NC(=O)Nc1ccc(C(C)=O)cc1 [CBK289462] | 123.431 |
| Nc1nonc1-c1noc(-c2cccc(Cl)c2)n1 [CBK026691] | 160.967 |
| O=C(/C=C/c1ccccc1)NC(=S)Nc1ccc2oc(-c3ccncc3)nc2c1 [CBK263687] | 102.043 |
| Cc1ccc(-c2cc(C3CCN(C(=O)c4cnn(C)c4)C3)[nH]n2)cc1 (centres unmarked) [CBK285266] | 127.509 |
| CC1CCc2c(sc3ncnc(OCC(=O)N4CCOCC4)c23)C1 (centres unmarked) [CBK306000] | 111.838 |
| [O-][N+]1=C2CCc3c(no[n+]3[O-])C2(O)CC1N1CCOCC1 (centres unmarked) [CBK261515] | 81.1338 |
| CN(C)c1cccc(C(=O)Nc2cnc(-c3cccc(C(F)(F)F)c3)c(-c3cccnc3)n2)c1 [CBK036752] | 87.1275 |
| O=C(CN1CCCN(c2nccs2)CC1)Nc1cc(Cl)ccc1Cl [CBK305921] | 124.351 |
| COc1ccccc1C(NC(=O)N(C(C)C)C(C)C)c1nccn1C (centres unmarked) [CBK283834] | 138.268 |
| CCn1c(CN2CCC(c3noc(C)n3)CC2)nc2c(F)cccc21 [CBK304960] | 103.14 |
| O=C(Nc1ccc(N2CCNCC2)nc1)c1ccccc1 [CBK028277T] | 130.327 |
| Clc1ccc(CN2CCN(c3nccnc3OCc3cccnc3)CC2)cc1 [CBK083130T] | 91.7677 |
| Cc1nnc2sc(-c3ccc(NC(=S)NC(=O)c4cc5ccccc5o4)cc3)nn12 [CBK266795] | 138.545 |
| CSCCCNC(=O)N(Cc1cccnc1)Cc1ccc2c(c1)OCO2 [CBK159426] | 96.4522 |
| CCCCN(C)S(=O)(=O)NCc1cn2ccccc2n1 [CBK306329] | 112.378 |
| C=CCc1cccc(Cl)c1OCCN1CCNCC1 [CBK266071G] | 162.434 |
| c1ccc([C@@H]2CN(Cc3ccccn3)C[C@H]2c2cc[nH]n2)cc1 [CBK285162] | 130.843 |
| COc1ccc([C@H]2C3CCCCC3[C@@H]2NC(=O)C2CCCO2)cc1 (some centres unmarked) [CBK282990] | 107.386 |
| CCN(CC)c1ccc(NC(=O)COc2ccccc2)cc1 [CBK096048] | 178.066 |
| Cc1cc(CN(C)Cc2c(C)nc3ccc(Cl)cn23)n[nH]1 [CBK281913] | 109.602 |
| O=C(NCc1ccc2c(c1)OCO2)c1ccc(Oc2ccccc2)cc1 [CBK293982] | 70.0011 |
| COc1cccc(CCC(=O)n2ccn(CCCOc3ccccc3)c2=O)c1 [CBK106565] | 102.167 |
